Earlier results in patent US11712426B2, “Metallo-liothyronine” (Synthonics, Inc., priority 2018, dated 2023).

Conditions: Table 1; cited from earlier work

CCn1cc(C(=O)O)c(=O)c2cc(F)c(N3CCN(C)CC3)cc21 [Pefloxacin]
pKa 1: 6.21 | pKa 2: 7.87
